Assay: Headspace analysis of released volatiles (SPME GC-MS)
Assay type: physicochemical
Conditions: paper strip in headspace vial, 24 h daylight lamp, relative peak area

With CCOc1cc(C=O)ccc1OCC/C=C(\C)c1ccc2ccccc2c1 [Example 51, (E)-3-ethoxy-4-((4-(naphthalen-2-yl)pent-3-en-1-yl)oxy)benzaldehyde] the “Released Volatiles (MS-TIC peak area %): 2-acetyl naphtalene” value was 12.8% and the “Released Volatiles (MS-TIC peak area %): ethylvanillin” value was 1.0%.

For C=CCC(CCCCCC)Oc1ccc(C=O)cc1OCC (stereo not shown) [Example 22, 4-(dec-1-en-4-yloxy)-3-ethoxybenzaldehyde], the “Released Volatiles (MS-TIC peak area %): 1-decen-4-ol” value was 25.5%, the “Released Volatiles (MS-TIC peak area %): 2-Nonenal” value was 4.1% and the “Released Volatiles (MS-TIC peak area %): 3-decen-2-one” value was 5.1%. The “Released Volatiles (MS-TIC peak area %): ethylvanillin” value was 0.05%.

In the case of CC/C=C\C/C=C\CCOc1ccc(C=O)cc1OCC [Example 30, 3-ethoxy-4-(((3Z,6Z)-nona-3,6-dien-1-yl)oxy)benzaldehyde], the “Released Volatiles (MS-TIC peak area %): 1-penten-3-ol” value is reported as 11.8%, the “Released Volatiles (MS-TIC peak area %): 2-Pentenal” value is reported as 13.1% and the “Released Volatiles (MS-TIC peak area %): 2-hexenal” value is reported as 2-hexenal (11.4%), nona-3,6-dien-1-ol,. For the same compound, the “Released Volatiles (MS-TIC peak area %): ethylvanillin” value was 0.8% and the “Released Volatiles (MS-TIC peak area %): nona-3,6-dien-1-ol” value was 8.0%.

For CCOc1cc(C=O)ccc1OCCC=C(C)CCc1ccccc1 [Example 47, 3-ethoxy-4-((4-methyl-6-phenylhex-3-en-1-yl)oxy)benzaldehyde], the “Released Volatiles (MS-TIC peak area %): benzylacetone” value was “benzylacetone (45.5%),” and the “Released Volatiles (MS-TIC peak area %): ethylvanillin” value was “ethylvanillin (0.5%)”.

With COC(=O)c1ccccc1OCCC=C(C)CCc1ccccc1 [Example 56, methyl 2-((4-methyl-6-phenylhex-3-en-1-yl)oxy)benzoate] the “Released Volatiles (MS-TIC peak area %): 4-phenyl-2-butanone” value was “butanone (5.2%)” and the “Released Volatiles (MS-TIC peak area %): methyl salicylate” value was “methyl salicylate (21.7%), 4-phenyl-2-”.

For C=CCC(CC/C=C\CC)Oc1ccc(C=O)cc1OCC (stereo not shown) [Example 12, (Z)-4-(deca-1,7-dien-4-yloxy)-3-ethoxybenzaldehyde], the “Released Volatiles (MS-TIC peak area %): 2,6-Nonadienal” value was 2,6-Nonadienal (4.7%), ethylvanillin and the “Released Volatiles (MS-TIC peak area %): ethylvanillin” value was “(0.03%)”.

With C=CCC(Oc1ccc(C=O)cc1OCC)c1ccccc1 (stereo not shown) [Example 68, 3-ethoxy-4-((1-phenylbut-3-en-1-yl)oxy)benzaldehyde] the “Released Volatiles (MS-TIC peak area %): 1-phenylbut-3-en-1-ol” value was 21%, the “Released Volatiles (MS-TIC peak area %): acetophenone” value was 1.8% and the “Released Volatiles (MS-TIC peak area %): benzaldehyde” value was “benzaldehyde (12.7%), acetophenone”. For the same compound, the “Released Volatiles (MS-TIC peak area %): cinnamaldehyde” value was “cinnamaldehyde (0.3%), ethylvanillin” and the “Released Volatiles (MS-TIC peak area %): ethylvanillin” value was “(0.3%)”.

With CC/C=C/CC(CCCCCCCCC)Oc1ccc(C=O)cc1OCC (stereo not shown) [Example 29, (E)-3-ethoxy-4-(pentadec-3-en-6-yloxy)benzaldehyde] the “Released Volatiles (MS-TIC peak area %): 2-dodecenal” value was 1.2%, the “Released Volatiles (MS-TIC peak area %): Decanal” value was 4.7% and the “Released Volatiles (MS-TIC peak area %): ethylvanillin” value was “ethylvanillin (0.02%)”.
